Some peptides are written in HELM: one residue between dots, names in brackets for other building blocks, links after the first $.

A short description of one data set: general procedure: solution-phase peptide synthesis; WSC·HCl/HOBt; HOSu/WSC·HCl active ester for cyclisation in pyridine. The settings on record: coupling step.
The substance Boc Asp(OBzl)Ser(Bzl)Pro Ala OPac showed a step yield of 86.9%.

The substance “Boc Gly Arg(Tos)Gly Asp(OBzl)Ser(Bzl)Pro Ala OPac” displayed a step yield of 50%. Turning to BocAsp(OcHex)AsnProAlaOBzl, the step yield was 87%. The same measure, in the same setting: the figure for “BocGlyArg(Tos)GlyAsp(OcHex)AsnProAlaOBzl” is 75%. Still for that read-out and setting: the value for “BocValThr(Bzl)GlyArg(Tos)GlyAsp(OBzl)Ser(Bzl)ProAlaOPac” was 94%.

Staying with this data set, now noted: late stage modification step.
Substance “Boc Gly Arg(Tos)Gly Asp(OBzl)Ser(Bzl)Pro Ala OH” registered a step yield of 90%. On the same count and under the same terms, the figure for BocAlaValThr(Bzl)GlyOH is 93%; for “BocValThr(Bzl)GlyArg(Tos)GlyAsp(OBzl)Ser(Bzl)ProAlaOH” it is 96%. Same read-out and setting: the figure for “PEPTIDE1{G.R.G.D.S.P.A}$PEPTIDE1,PEPTIDE1,1:R1-7:R2$$$V2.0” is 84%.

The values above are taken from patent publication EP0406428B1 (ASAHI GLASS COMPANY LTD., priority 1988, dated 1995).
